According to patent US9248928B2, “Methods of manufacturing contact lenses for delivery of beneficial agents” (CooperVision International Holding Company, LP, priority 2012, dated 2016):

What was measured:
[1] = 50 ppm epinastine
[2] = εPLL uptake by ionic silicone hydrogel contact lenses (effect of ionic strength of packaging solution); details: for average εPLL taken up by lens: autoclaved 120° C. 30 min; for % of total εPLL available taken up: silicone hydrogel lens, autoclaved
[3] = In vitro release assay of εPLL from ocufilcon D lenses into ISO 10344 standard saline
[4] = silicone hydrogel lens of Example 1, TRIS buffer with 2% sorbitol (ionic strength about 0.02)
[5] = silicone hydrogel lens of Example 1, autoclaved in 3 ml TRIS buffered saline (ionic strength ~0.16)
[6] = 1.2 ml 500 ppm εPLL in PBS (ionic strength about 0.20)
[7] = 1.2 ml 500 ppm εPLL in TRIS/sorbitol buffer (ionic strength about 0.02)
[8] = 2 hr, ocufilcon D lens packaged in TRIS-NaCl
[9] = 2 hr, ocufilcon D lens packaged in TRIS-Sorbitol
[10] = 4 hr, ocufilcon D lens packaged in TRIS-NaCl
[11] = 4 hr, ocufilcon D lens packaged in TRIS-Sorbitol
[12] = 8 hr, ocufilcon D lens packaged in TRIS-NaCl
[13] = 8 hr, ocufilcon D lens packaged in TRIS-Sorbitol
[14] = 24 hr, ocufilcon D lens packaged in TRIS-NaCl
[15] = 24 hr, ocufilcon D lens packaged in TRIS-Sorbitol
[16] = 48 hr, ocufilcon D lens packaged in TRIS-NaCl
[17] = 48 hr, ocufilcon D lens packaged in TRIS-Sorbitol

NC1=NCC2c3ccccc3Cc3ccccc3N12 (stereo not shown) [epinastine]
% of available epinastine taken up [1, 4]: about 59% | epinastine taken up by lens [1, 4]: about 88 μg | % of available epinastine taken up [1, 5]: about 37% | epinastine taken up by lens [1, 5]: about 56 μg

epsilon poly-1-lysine [εPLL]
average εPLL taken up by lens [2, 6]: 191 µg | average εPLL taken up by lens [2, 7]: 408 µg | % of total εPLL available taken up [2, 6]: about 32% | % of total εPLL available taken up [2, 7]: about 68% | cumulative % released relative to uptake [3, 8]: 28% | cumulative μg release [3, 8]: 75 µg | cumulative % released relative to uptake [3, 9]: 47% | cumulative μg release [3, 9]: 284 µg | cumulative % released relative to uptake [3, 10]: 40% | cumulative μg release [3, 10]: 105 µg | cumulative % released relative to uptake [3, 11]: 56% | cumulative μg release [3, 11]: 341 µg | cumulative % released relative to uptake [3, 12]: 50% | cumulative μg release [3, 12]: 132 µg | cumulative % released relative to uptake [3, 13]: 62% | cumulative μg release [3, 13]: 380 µg | cumulative % released relative to uptake [3, 14]: 62% | cumulative μg release [3, 14]: 163 µg | cumulative % released relative to uptake [3, 15]: 68% | cumulative μg release [3, 15]: 416 µg | cumulative % released relative to uptake [3, 16]: 68% | cumulative μg release [3, 16]: 178 µg | cumulative % released relative to uptake [3, 17]: 71% | cumulative μg release [3, 17]: 431 µg

Like-named read-outs stand apart in the source and are kept apart here.
